Reference: publication PMC11302984

Molecular target: T1, GFP-VAPA (human) (UniProt Q9P0L0)
T1 sequence: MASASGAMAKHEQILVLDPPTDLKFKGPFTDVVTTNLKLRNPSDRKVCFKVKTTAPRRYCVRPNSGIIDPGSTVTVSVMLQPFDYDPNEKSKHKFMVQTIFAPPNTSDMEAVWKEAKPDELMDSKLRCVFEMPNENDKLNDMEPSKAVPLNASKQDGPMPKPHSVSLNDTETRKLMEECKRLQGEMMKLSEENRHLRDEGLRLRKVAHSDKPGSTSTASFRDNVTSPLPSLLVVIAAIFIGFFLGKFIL
Test: co-IP; from HEK293T cells expressing the tagged proteins; done as described previously (Cabukusta et al., 2020)

Question: For Scarlet-ORP9 iso.2 (mouse), which binding is on record?
Answer: binds

These are yes or no findings as the source states them, for the method shown. In cells and extracts the contact can be indirect. Binding can be weak; no strength is given. Sequences can lack the tags named with a protein.
